PubChem BioAssay AID1259264, Sanger Institute – 2017
Shown is one part, drawn at random, of 794 deposited reagents. 15 of all reagents (1.9%) count as active. 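Calls rest on knock-down alone at z-score below -3; synergy scores with the three drugs do not decide them.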 Viability is capped at 1. The record does not give: the amount of reagent, the time to read-out.

Assay: 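Kinases needed for CL40 growth and those that boost anti-cancer drug killing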 (primary screen)
Cell system: CL40 human colorectal cancer cells
Knock-down reagent: siRNA pool against human genes
Conditions: DMSO, or an anchor drug: BYL719 at 1 µM, cetuximab at 5 µg/ml, or trametinib at 10 nM
Read-out: 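Viability as a fraction of non-targeting pool control (replicates averaged), control-based robust z-score, plus averaged synergy for each drug: BYL719 1 µM, cetuximab 5 µg/ml, trametinib 10 nM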
Direction: robust z-score, siRNA alone and viability, siRNA alone: higher = more viable cells; synergy score with BYL719: higher = stronger combined killing with BYL719; synergy score with cetuximab: higher = stronger combined killing with cetuximab; synergy score with trametinib: higher = stronger combined killing with trametinib
Hit rule: 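a gene counts as essential when knock-down without drug gives a robust z-score below -3, meaning fewer cells; synergy scores play no part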
Calls: active = essential (lowers viability alone); inactive = not essential

gene knocked down | PubChem SID | robust z-score, siRNA alone | viability, siRNA alone (fraction of control) | synergy score with BYL719 | synergy score with cetuximab | synergy score with trametinib | Outcome
FGR | SID135620620 | -0.277 | 0.941 | -0.136 | -0.0224 | 0.154 | inactive
PTGS1 | SID134310518 | -0.349 | 0.936 | -0.0759 | -0.08 | 0.127 | inactive
STK31 | SID135620977 | -0.101 | 0.954 | -0.169 | -0.0625 | 0.186 | inactive
MED12 | SID152147641 | 0.41 | 0.991 | 0.0223 | -0.0265 | 0.141 | inactive
PI4K2B | SID56479132 | 0.539 | 1 | -0.049 | 0.0267 | 0.0739 | inactive
PAK3 | SID56478716 | 0.539 | 1 | 0.0634 | -0.0174 | 0.0652 | inactive
PSTK | SID134320501 | -1.84 | 0.829 | -0.191 | -0.0961 | -0.00907 | inactive
CDK1 | SID56478584 | -0.794 | 0.904 | -0.113 | -0.00907 | -0.0886 | inactive
APC | SID152153239 | -0.686 | 0.912 | -0.23 | 0.00827 | 0.0529 | inactive
CDC42BPB | SID152149037 | 0.539 | 1 | -0.0165 | -0.0174 | 0.0672 | inactive
TK2 | SID152153963 | 0.539 | 1 | -0.0297 | -0.0174 | 0.102 | inactive
ALPK1 | SID152152286 | -0.56 | 0.921 | -0.205 | -0.0949 | 0.117 | inactive
MAPK10 | SID56478791 | 0.539 | 1 | -0.152 | -0.00688 | 0.0345 | inactive
BUB1 | SID152152440 | -0.663 | 0.914 | -0.0553 | -0.00938 | 0.0376 | inactive
TP53BP1 | SID134309949 | 0.539 | 1 | -0.156 | 0.0306 | 0.0404 | inactive
PRP4K | SID152152780 | 0.464 | 0.995 | 0.0885 | 0.107 | 0.0509 | inactive
ERN1 | SID135620914 | 0.539 | 1 | -0.0332 | -0.0174 | 0.164 | inactive
PRKAB2 | SID134312706 | 0.186 | 0.975 | -0.0121 | -0.0423 | 0.118 | inactive
WEE1 | SID152152823 | -0.576 | 0.92 | -0.0737 | -0.0643 | 0.0916 | inactive
RIPK2 | SID152156478 | 0.209 | 0.976 | -0.00358 | -0.0248 | 0.128 | inactive
ROR1 | SID135620631 | 0.539 | 1 | -0.156 | -0.0174 | 0.016 | inactive
CDKL3 | SID56478871 | 0.539 | 1 | -0.156 | -0.0174 | 0.0768 | inactive
MAST2 | SID152154248 | 0.539 | 1 | -0.0587 | 0.077 | 0.0508 | inactive
HK2 | SID56479103 | 0.0166 | 0.963 | 0.0315 | -0.0108 | 0.0468 | inactive
PRPS1 | SID56479145 | 0.539 | 1 | -0.0913 | -0.0174 | 0.191 | inactive
NEK3 | SID152154962 | 0.539 | 1 | -0.15 | -0.0174 | 0.0826 | inactive
PFKFB4 | SID152152940 | 0.539 | 1 | -0.156 | -0.0174 | 0.0669 | inactive
CDKN2B | SID135620642 | 0.539 | 1 | -0.0603 | -0.0157 | 0.1 | inactive
TRIM27 | SID152155375 | 0.539 | 1 | -0.0441 | -0.0174 | 0.0746 | inactive
NEK10 | SID56478763 | 0.00196 | 0.961 | -0.0752 | 0.0111 | 0.0538 | inactive
TSSK2 | SID56479050 | 0.064 | 0.966 | -0.00123 | 0.0178 | 0.047 | inactive
PAK1 | SID135620692 | -0.0926 | 0.955 | -0.148 | -0.0619 | 0.101 | inactive
CKM | SID56479085 | 0.433 | 0.992 | -0.162 | 0.028 | 0.0862 | inactive
BRD3 | SID135620912 | 0.539 | 1 | -0.156 | -0.0174 | 0.0593 | inactive
TYK2 | SID135620633 | 0.539 | 1 | 0.0247 | -0.0174 | 0.0828 | inactive
CASP8 | SID135620682 | 0.539 | 1 | -0.156 | -0.0174 | 0.0762 | inactive
UCKL1 | SID152149527 | -0.363 | 0.935 | -0.101 | -0.0478 | 0.0865 | inactive
CLK4 | SID56478876 | 0.313 | 0.984 | -0.0577 | -0.0333 | 0.108 | inactive
MAPKAPK3 | SID56478946 | 0.0986 | 0.968 | -0.049 | 0.0834 | 0.144 | inactive
BRAF | SID152153735 | -2.64 | 0.772 | 0.0178 | -0.128 | 0.0663 | inactive
FER | SID152156672 | 0.276 | 0.981 | -0.0413 | -0.0359 | 0.0229 | inactive
PIM2 | SID56479034 | 0.539 | 1 | -0.0722 | -0.0174 | 0.149 | inactive
PRKD3 | SID56478959 | 0.161 | 0.973 | -0.0502 | -0.0441 | 0.0409 | inactive
MAPKAPK5 | SID56478947 | 0.465 | 0.995 | -0.103 | 0.0324 | 0.0933 | inactive
CAD | SID152152923 | 0.539 | 1 | -0.156 | 0.0325 | -0.127 | inactive
STK38 | SID152149792 | 0.0352 | 0.964 | -0.0284 | 0.00533 | 0.0581 | inactive
STYK1 | SID56478493 | -0.951 | 0.893 | -0.231 | -0.122 | 0.0214 | inactive
DGKB | SID56479090 | -0.629 | 0.916 | -0.0721 | -0.0461 | 0.0664 | inactive
PDXK | SID56478979 | 0.539 | 1 | -0.0639 | -0.0174 | 0.00757 | inactive
STK39 | SID152151246 | -1.31 | 0.867 | -0.0325 | -0.148 | 0.0919 | inactive

6 entries from above, showing only “robust z-score, siRNA alone”.
PSTK [SID134320501]: -1.84
CDK1 [SID56478584]: -0.794
APC [SID152153239]: -0.686
CDC42BPB [SID152149037]: 0.539
TK2 [SID152153963]: 0.539
ALPK1 [SID152152286]: -0.56
